Data published in PubChem BioAssay AID1671190 (National Center for Advancing Translational Sciences (NCATS), 2021).
Out of some 580,000 compounds screened, about 6,100 (1.1%) were called active. The inconclusive results got no clear call from the source; some entries with a clear call stand among them for comparison. Calls follow the shape of the dose curve; as a rule, active = well fitted inhibition curve with a large enough effect; inconclusive = small, poorly fitted or top-dose-only effect, or another doubt; inactive = no such curve, though single readings can be large or run the other way. Potencies of inconclusive entries are doubtful fits and often do not repeat.

Amino acid sequences for entries named in this document (tags omitted). A change or cut given only in a name is not applied to a line headed by its entry.
UniProt P18054: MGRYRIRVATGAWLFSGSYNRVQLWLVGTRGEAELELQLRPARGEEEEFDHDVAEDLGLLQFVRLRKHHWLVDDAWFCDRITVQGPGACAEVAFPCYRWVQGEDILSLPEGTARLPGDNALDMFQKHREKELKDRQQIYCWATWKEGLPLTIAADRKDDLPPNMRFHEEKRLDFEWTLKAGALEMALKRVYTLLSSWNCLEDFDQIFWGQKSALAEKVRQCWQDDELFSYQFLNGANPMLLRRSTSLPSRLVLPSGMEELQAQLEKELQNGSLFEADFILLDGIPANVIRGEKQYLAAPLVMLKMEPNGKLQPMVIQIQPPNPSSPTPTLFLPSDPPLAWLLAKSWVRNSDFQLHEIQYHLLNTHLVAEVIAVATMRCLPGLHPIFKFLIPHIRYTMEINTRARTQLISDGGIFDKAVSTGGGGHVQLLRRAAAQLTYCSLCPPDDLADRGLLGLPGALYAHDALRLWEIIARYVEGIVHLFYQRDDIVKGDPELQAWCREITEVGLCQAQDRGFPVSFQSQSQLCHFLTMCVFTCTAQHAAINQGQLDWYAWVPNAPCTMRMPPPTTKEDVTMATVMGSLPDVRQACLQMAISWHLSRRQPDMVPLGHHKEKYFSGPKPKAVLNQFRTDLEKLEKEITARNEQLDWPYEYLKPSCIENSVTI

Target: Polyunsaturated fatty acid lipoxygenase ALOX12 (Homo sapiens) (UniProt P18054)
Assay: Primary qHTS assay for inhibitors of human arachidonate 12S-lipoxygenase (ALOX12): Round 2
Conditions: purified 12hLO, xylenol orange hydroperoxide absorbance; activity change, negative = inhibition: at 108 µM (top of the series) unless noted
Summary of the method: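 Purified human 12hLO at 150 nM in 25 mM Hepes, 0.01% Triton X-100, pH 7.0, preincubated 15 min at room temperature with compound. Reaction started with 40 uM arachidonic acid, 30 min at room temperature. Hydroperoxide measured by Fe-xylenol orange, 573/405 nm absorbance ratio.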
% is scaled to controls: 0 for no effect and ±100 for the full control effect; potency is read from the fitted curve at half-maximal effect.

Row | SMILES | Potency | activity change, negative = inhibition
1 | O=C(c1ccc(Cl)cc1)N1CC2(CCN(CC3CCCCC3)CC2)Cc2ccccc21 | inconclusive: 50.1 µM [inhibitor, partial curve, poor fit] | –
2 | CC(Cc1cccnc1)Nc1cc(-c2ccccc2F)nc2ccnn12 (centres undefined) | inactive | –
3 | O=C(Nc1ccc(Cl)cc1)N1CCCC1 | inactive | –
4 | O=C(CC(c1ccccc1)c1cc(Br)ccc1O)NCCN1CCOCC1 (centres undefined) | inactive | –
5 | COc1ccc(C(c2nnnn2Cc2ccccc2)N2CCN(c3ccccc3)CC2)cc1 (centres undefined) | inconclusive: 35.5 µM [inhibitor, partial curve, poor fit] | –
6 | CCCNC(=O)N1CC(=O)N2[C@@H](CO)[C@H](c3ccc(Br)cc3)[C@@H]2C1 | inconclusive: 50.1 µM [inhibitor, partial curve, poor fit] | –
7 | O=C(Nc1ccccc1)OCCCc1ccccc1 | inconclusive: 100 µM [inhibitor, single point] | –
8 | COc1ccc(CNC(=O)C[C@@H]2O[C@H](CNC(=O)NC(C)C)[C@@H](O)[C@H]2O)cc1 | inconclusive: 12.6 µM [inhibitor, full curve, poor fit] | –
9 | CN1CC2(CCN(C(=O)C3CCCC3)CC2)CC1C(=O)N1CCOCC1 (centres undefined) | inactive | –
10 | CCN(CC)S(=O)(=O)c1ccc2c(c1)CC(C(=O)NCCc1ccc(Cl)cc1)N2C(C)=O (centres undefined) | inconclusive: 4.47 µM [inhibitor, full curve, poor fit] | –
11 | Cc1ccc(CSc2nnc(SCC(=O)N/N=C/c3c[nH]c4ccccc34)s2)cc1 | inactive | –
12 | Cc1ocnc1C(=O)N1CCN(C(=O)C2CCC2)[C@@H]2CS(=O)(=O)C[C@@H]21 | inactive | –
13 | Cn1c(=O)[nH]c(=O)c2c1nc(NCCCO)n2Cc1ccccc1 | inconclusive: 50.1 µM [inhibitor, partial curve, poor fit] | –
14 | CCOC(=O)CSc1nnc(-c2ccc(OC)cc2)o1 | – | inconclusive: -34.2% [inhibitor]
15 | O=C(NCc1ccccc1)c1cc(C2COCCN2S(=O)(=O)c2ccccc2)on1 (centres undefined) | inconclusive: 35.5 µM [inhibitor, single point] | –
16 | COc1ccc(CN[C@@H]2CCC[C@@H](C(=O)N3CCN(C)CC3)CC(=O)N(C)C2)cn1 | inactive | –
17 | Oc1ccc(C2=NN(c3ccccc3)C(c3ccc(F)cc3)C2)cc1 (centres undefined) | inconclusive: 6.31 µM [inhibitor, full curve, poor fit] | –
18 | O=C(O)c1ccc2c(c1)c(C(C(=O)O)N1CCCC1)cn2Cc1ccccc1 (centres undefined) | inconclusive: 44.7 µM [inhibitor, partial curve, poor fit] | –
19 | CC1(C)CC(N2CCOCC2)=CC(=[N+]2CCOCC2)C1 | inconclusive: 50.1 µM [inhibitor, partial curve, poor fit] | –

Single values from the entries so far.
Entry for CC1(C)CC(N2CCOCC2)=CC(=[N+]2CCOCC2)C1 under Potency: inconclusive: 50.1 µM [inhibitor, partial curve, poor fit]
Entry for CN1CC2(CCN(C(=O)C3CCCC3)CC2)CC1C(=O)N1CCOCC1 (centres undefined) under Potency: inactive
